Measurements reported in the supplement of paper PMC10849652.
The list shows a part of the results.

By UniProt entry, the sequences of proteins in these tests, tags left out. Where a name states a change or a piece, a line headed by the entry shows the natural chain unless it says otherwise.
UniProt Q9P2S5: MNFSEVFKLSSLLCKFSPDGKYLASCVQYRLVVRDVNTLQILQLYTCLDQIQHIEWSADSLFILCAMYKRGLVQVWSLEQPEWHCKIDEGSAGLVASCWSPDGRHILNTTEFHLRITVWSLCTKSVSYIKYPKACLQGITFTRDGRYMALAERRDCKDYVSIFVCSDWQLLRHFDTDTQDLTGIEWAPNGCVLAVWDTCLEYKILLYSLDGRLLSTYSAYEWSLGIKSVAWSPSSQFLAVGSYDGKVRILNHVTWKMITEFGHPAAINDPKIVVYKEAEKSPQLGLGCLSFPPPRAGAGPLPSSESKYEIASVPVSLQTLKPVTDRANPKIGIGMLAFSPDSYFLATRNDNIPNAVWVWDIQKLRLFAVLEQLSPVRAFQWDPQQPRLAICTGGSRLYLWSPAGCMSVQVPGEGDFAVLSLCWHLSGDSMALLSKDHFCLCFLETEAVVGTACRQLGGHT
UniProt Q502W6: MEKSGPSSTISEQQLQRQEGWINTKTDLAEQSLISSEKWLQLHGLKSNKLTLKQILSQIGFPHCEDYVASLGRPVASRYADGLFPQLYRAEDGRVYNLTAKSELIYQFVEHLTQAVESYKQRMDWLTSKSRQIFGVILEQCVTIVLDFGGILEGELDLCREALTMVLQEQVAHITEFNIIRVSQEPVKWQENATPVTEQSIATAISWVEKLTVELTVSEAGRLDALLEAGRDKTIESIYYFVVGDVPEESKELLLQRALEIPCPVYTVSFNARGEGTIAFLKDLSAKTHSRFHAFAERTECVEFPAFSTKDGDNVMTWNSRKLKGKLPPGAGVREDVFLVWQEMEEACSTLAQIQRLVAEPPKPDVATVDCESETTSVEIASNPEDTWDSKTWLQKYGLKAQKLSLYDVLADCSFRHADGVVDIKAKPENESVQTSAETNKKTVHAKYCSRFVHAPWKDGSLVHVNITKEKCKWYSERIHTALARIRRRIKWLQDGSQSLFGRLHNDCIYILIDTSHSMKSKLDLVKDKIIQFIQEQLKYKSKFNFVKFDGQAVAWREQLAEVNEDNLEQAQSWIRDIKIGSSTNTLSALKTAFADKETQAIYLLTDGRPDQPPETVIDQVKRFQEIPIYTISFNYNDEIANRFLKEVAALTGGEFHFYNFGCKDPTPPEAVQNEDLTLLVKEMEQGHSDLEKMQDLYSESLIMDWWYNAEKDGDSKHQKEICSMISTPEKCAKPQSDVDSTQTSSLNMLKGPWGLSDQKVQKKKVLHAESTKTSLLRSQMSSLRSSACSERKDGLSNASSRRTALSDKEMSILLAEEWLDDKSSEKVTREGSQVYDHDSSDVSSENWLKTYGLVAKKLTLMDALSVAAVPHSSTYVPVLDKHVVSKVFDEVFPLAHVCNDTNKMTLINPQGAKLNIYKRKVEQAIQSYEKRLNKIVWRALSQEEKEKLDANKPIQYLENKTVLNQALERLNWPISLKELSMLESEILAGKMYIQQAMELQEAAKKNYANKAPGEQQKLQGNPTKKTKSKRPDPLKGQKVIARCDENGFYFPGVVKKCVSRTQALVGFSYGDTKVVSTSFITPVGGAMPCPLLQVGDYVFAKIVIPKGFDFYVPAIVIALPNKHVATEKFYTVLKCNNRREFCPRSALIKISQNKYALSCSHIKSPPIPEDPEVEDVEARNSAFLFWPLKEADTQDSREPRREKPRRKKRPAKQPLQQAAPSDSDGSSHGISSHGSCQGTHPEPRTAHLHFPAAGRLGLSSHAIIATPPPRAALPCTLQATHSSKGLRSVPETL
UniProt Q9C0J8: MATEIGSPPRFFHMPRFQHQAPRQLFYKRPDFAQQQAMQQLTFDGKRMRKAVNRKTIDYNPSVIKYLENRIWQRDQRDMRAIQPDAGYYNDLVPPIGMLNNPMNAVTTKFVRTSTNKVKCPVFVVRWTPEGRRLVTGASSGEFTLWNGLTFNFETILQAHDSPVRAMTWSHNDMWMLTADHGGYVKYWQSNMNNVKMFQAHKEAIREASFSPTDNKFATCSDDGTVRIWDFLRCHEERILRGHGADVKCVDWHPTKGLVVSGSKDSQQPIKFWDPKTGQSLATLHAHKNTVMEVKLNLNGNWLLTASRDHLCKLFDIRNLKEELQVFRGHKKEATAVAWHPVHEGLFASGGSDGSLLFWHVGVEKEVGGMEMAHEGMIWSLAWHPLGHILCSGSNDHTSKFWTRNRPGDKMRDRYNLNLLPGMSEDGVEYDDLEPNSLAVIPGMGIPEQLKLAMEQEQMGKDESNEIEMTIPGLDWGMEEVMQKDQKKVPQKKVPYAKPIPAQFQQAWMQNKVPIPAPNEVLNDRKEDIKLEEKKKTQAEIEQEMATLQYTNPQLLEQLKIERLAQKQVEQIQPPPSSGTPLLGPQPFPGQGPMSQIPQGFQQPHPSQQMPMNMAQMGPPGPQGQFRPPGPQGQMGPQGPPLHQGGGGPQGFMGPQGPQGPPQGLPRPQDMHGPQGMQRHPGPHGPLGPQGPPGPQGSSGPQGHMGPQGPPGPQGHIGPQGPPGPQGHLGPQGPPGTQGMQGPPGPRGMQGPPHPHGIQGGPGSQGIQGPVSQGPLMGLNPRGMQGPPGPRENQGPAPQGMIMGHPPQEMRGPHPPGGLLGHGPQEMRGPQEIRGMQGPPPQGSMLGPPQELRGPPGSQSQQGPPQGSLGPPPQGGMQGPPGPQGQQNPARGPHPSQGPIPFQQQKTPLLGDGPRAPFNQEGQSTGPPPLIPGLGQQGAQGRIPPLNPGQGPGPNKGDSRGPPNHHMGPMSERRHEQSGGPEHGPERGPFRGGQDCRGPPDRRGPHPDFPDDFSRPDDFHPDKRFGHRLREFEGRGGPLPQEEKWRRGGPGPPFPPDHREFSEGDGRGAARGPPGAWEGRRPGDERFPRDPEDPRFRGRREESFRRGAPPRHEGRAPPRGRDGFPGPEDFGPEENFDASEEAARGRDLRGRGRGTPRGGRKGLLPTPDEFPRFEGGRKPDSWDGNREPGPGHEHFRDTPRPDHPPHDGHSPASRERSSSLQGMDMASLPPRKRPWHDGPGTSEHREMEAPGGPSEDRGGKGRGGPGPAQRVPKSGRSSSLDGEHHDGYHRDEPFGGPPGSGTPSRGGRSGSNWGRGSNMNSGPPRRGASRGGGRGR
UniProt Q9Y4P8: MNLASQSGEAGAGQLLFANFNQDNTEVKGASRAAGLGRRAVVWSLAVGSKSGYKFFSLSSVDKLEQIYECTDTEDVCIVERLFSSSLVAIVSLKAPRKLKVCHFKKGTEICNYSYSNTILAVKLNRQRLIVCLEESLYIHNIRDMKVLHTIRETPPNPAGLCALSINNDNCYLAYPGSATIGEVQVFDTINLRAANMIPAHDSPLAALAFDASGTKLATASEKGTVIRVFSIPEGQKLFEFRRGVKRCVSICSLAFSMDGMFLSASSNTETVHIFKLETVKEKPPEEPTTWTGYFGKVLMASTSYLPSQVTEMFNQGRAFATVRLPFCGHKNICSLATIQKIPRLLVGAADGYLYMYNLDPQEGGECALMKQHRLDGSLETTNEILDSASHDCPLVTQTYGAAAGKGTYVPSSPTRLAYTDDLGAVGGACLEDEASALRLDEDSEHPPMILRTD
UniProt Q96S55: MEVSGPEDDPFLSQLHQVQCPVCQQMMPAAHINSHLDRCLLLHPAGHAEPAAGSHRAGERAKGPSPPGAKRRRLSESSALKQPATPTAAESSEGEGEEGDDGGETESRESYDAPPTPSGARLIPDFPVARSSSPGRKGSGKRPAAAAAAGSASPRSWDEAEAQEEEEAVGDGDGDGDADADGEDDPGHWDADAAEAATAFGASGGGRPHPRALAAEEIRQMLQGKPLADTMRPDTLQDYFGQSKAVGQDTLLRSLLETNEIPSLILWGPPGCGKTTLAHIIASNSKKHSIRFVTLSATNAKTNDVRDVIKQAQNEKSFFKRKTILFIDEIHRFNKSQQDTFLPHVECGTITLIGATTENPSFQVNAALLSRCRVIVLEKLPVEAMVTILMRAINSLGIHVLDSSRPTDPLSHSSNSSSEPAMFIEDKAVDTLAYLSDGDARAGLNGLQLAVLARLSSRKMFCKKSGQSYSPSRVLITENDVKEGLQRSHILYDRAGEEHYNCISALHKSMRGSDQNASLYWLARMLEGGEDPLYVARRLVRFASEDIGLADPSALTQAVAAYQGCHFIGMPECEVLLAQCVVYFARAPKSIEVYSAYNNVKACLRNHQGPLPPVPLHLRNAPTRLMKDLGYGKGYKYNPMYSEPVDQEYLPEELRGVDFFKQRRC
UniProt Q9UK41: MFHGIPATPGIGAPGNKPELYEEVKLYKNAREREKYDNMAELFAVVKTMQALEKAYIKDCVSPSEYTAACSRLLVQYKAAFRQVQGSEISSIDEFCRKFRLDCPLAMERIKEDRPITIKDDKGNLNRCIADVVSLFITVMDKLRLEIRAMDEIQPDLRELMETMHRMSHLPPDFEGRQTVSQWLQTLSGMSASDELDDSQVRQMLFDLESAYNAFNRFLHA
UniProt Q6UXN9, whole entry, looked up: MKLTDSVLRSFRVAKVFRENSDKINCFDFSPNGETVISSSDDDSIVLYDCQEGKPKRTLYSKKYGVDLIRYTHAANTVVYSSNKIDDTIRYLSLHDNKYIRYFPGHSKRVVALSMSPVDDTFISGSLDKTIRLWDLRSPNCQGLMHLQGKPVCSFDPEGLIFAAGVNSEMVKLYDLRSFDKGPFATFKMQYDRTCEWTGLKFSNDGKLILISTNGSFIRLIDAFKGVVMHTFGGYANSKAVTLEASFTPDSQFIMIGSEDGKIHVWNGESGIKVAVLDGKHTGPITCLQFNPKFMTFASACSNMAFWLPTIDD
UniProt P49754: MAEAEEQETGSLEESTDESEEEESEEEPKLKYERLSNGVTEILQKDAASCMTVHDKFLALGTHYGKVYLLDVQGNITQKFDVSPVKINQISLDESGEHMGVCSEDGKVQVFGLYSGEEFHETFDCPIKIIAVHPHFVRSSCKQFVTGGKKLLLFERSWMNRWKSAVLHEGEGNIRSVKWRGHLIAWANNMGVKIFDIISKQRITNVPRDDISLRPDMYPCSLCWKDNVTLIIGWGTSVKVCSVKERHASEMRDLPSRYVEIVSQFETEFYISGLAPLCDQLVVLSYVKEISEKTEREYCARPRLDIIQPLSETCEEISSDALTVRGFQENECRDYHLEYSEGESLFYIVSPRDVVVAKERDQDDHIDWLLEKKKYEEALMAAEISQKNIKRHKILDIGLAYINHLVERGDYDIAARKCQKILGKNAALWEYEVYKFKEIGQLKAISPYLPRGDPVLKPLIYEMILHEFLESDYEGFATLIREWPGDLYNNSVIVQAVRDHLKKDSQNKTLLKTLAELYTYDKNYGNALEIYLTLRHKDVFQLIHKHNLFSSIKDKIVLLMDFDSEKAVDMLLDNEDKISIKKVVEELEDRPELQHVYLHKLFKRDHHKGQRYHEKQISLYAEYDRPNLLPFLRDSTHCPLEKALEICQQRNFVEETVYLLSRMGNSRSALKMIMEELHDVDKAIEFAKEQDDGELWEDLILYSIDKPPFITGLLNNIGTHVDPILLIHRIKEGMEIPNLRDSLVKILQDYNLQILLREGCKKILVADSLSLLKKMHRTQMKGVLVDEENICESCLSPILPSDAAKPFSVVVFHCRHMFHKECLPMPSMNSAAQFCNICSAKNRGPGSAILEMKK
UniProt Q5VIR6: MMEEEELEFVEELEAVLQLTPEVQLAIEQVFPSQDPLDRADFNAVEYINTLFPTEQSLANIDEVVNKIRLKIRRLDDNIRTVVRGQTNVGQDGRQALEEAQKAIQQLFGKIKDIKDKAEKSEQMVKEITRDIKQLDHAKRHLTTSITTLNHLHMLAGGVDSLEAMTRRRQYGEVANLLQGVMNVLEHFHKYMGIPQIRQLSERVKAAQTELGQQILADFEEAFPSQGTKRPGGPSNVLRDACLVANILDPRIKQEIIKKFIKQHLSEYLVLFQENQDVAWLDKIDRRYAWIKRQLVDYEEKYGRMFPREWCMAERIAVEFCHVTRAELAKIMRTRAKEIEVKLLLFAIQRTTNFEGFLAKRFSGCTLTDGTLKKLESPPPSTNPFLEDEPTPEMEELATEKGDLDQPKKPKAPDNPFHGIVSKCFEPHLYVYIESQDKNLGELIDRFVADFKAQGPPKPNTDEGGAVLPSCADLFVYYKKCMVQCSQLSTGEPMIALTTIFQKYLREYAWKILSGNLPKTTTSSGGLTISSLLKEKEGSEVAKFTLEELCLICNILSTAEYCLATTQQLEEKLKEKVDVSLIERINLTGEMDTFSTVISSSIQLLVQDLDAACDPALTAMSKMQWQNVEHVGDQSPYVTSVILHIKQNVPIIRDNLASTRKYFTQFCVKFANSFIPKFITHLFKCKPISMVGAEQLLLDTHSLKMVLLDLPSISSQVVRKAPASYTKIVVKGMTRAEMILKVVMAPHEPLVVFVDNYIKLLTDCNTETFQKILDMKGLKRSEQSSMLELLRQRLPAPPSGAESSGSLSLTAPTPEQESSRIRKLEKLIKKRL

Legend:
Experiment in all cases: log2 fold change, soluble protein after heating vs DMSO (PISA); higher = thermal stabilisation; K562 lysate, 10 uM; active = over 0.2 and 3.5 SD of the protein, either way, in both replicates (recomputed)
[1] = compound: C=CC(=O)N1CCC[C@@H](n2nc(-c3ccc(Oc4ccccc4)cc3)c3c(N)ncnc32)C1 [ibrutinib]
In short: (§1)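 A 30 min treatment with 10 μM compound was applied to crude K562 extract at 1 mg/mL protein in PBS pH 7.4 with 1 mM MgCl2. Heating for 3 min spanned 48°C-58°C, after which aliquots were pooled, adjusted to 0.5% NP-40 at 4°C and spun at 21,000xg for 90 min. TMTpro 16plex LC-MS/MS of the supernatant, with channel sums equalised, gave values recorded as log-two fold change in thermal stability against solvent controls, from duplicates.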

[2] = compound: CC(=O)c1cnc2ccc(-c3cc(Cl)c(O)c(Cl)c3)nc2c1N[C@H]1CC[C@H](CN(C)C)CC1
In short: as §1

[3] = compound: CC(C)(C)Cn1c(N)nc2ccc(-c3[nH]c(C(C)(C)C)nc3-c3ccc(F)cc3)nc21 [ralimetinib]
In short: as §1

[4] = compound: CC(C)(O)CC(=O)NCCn1ccc2ncnc(Nc3ccc(Oc4cccc(C(F)(F)F)c4)c(Cl)c3)c21
In short: as §1

[5] = compound: CC(C)C1=C2N=C(C=C(N2N=C1)NCC3=CC=CC=C3)NCCCCCCN
In short: as §1

[6] = compound: CC1=C(C(CC(=O)N1)C2=CC=C(C=C2)C(F)(F)F)C(=O)NC3=C(C=C4C(=C3)C=NN4)F
In short: as §1

[7] = compound: CC1=C(C2=C(C=C1)C(=O)C3=CC=CC=C3N2CCCN)C
In short: as §1

[8] = compound: CC1=C(C=C(C=C1)NC(=O)C2=CC(=CC=C2)C(C)(C)C#N)NC3=CC4=C(C=C3)N=CN(C4=O)C
In short: as §1

[9] = compound: CC1=C(C=C(C=C1)NC(=O)C2=CC(=CC=C2)N(C)C)NC(=O)C3=CC=C(C=C3)O
In short: as §1

[10] = compound: CC1=CC=C(C=C1)SC2=C3C=C(SC3=CN=C2)C(=O)N
In short: as §1

Measured: log2 fold change

WRAP73 (UniProt Q9P2S5)
inactive: [1] 0.048 | [2] 0.009 | [3] -0.002 | [4] 0.022 | [5] -0.065 | [6] -0.009 | [7] 0.141 | [8] 0.053 | [9] 0.017 | [10] -0.038

VPS26B (UniProt Q4G0F5)
inactive: [1] 0.028 | [2] -0.012 | [3] 0.026 | [4] -0.034 | [5] -0.026 | [6] -0.005 | [7] -0.03 | [8] -0.006 | [9] -0.035 | [10] -0.003

WARS1 (UniProt G3V277)
inactive: [1] 0.152

WDR3 (UniProt Q9UNX4)
inactive: [1] 0 | [2] 0.014 | [3] 0.021 | [4] 0.025 | [5] -0.033 | [6] 0.015 | [7] -0.032 | [8] -0.021 | [9] -0.001 | [10] 0.03

WNK4 (UniProt Q96J92)
inactive: [1] 0.051 | [2] -0.014 | [3] 0.016 | [4] -0.134 | [5] -0.002 | [6] 0.028 | [7] -0.029 | [8] 0 | [9] -0.008 | [10] -0.022

WARS2 (UniProt Q9UGM6)
inactive: [1] 0.086 | [2] 0.026 | [3] 0.021 | [4] 0.007 | [5] -0.01 | [6] 0.006 | [7] -0.03 | [8] 0.015 | [9] 0.002 | [10] 0.04

VWA3B isoform 6 (UniProt Q502W6)
inactive: [1] 0.162 | [2] -0.007 | [3] 0.083 | [4] 0.009 | [5] 0.033 | [6] -0.033 | [7] 0.037 | [8] -0.078 | [9] 0.009 | [10] -0.018

WDR33 (UniProt Q9C0J8)
inactive: [1] 0.052 | [2] 0.033 | [3] 0.033 | [4] -0.04 | [5] 0.003 | [6] -0.064 | [7] -0.019 | [8] -0.006 | [9] -0.001 | [10] -0.012

VPS26A (UniProt O75436)
inactive: [1] -0.009 | [2] -0.016 | [3] 0.022 | [4] -0.016 | [5] -0.012 | [6] -0.003 | [7] -0.002 | [8] 0.023 | [9] -0.014 | [10] 0.001

VPS18 (UniProt Q9P253)
inactive: [1] -0.007 | [2] -0.026 | [3] 0.038 | [4] -0.065 | [5] -0.022 | [6] 0.004 | [7] -0.046 | [8] -0.004 | [9] -0.041 | [10] 0.009

WDR73 (UniProt Q6P4I2)
inactive: [1] 0.008 | [2] 0.03 | [3] -0.009 | [4] -0.001 | [5] -0.003 | [6] -0.016 | [7] -0.013 | [8] 0.007 | [9] 0.001 | [10] 0.032

XPC (UniProt Q01831)
inactive: [1] 0.012 | [2] -0.002 | [3] 0.024 | [4] 0.033 | [5] 0.04 | [6] 0.033 | [7] -0.015 | [8] 0.037 | [9] -0.008 | [10] 0.043

WIPI2 isoform 6 (UniProt Q9Y4P8)
inactive: [1] -0.021

VPS37A (UniProt Q8NEZ2)
inactive: [1] -0.012 | [2] 0.021 | [3] 0.013 | [4] 0.002 | [5] -0.02 | [6] 0.066 | [7] 0.036 | [8] -0.103 | [9] 0.02 | [10] -0.02

WRNIP1 (UniProt Q96S55)
inactive: [1] 0.025 | [2] 0.026 | [3] 0.051 | [4] 0.026 | [5] 0.001 | [6] 0.045 | [7] 0.013 | [8] -0.023 | [9] -0.003 | [10] -0.023

VPS28 (UniProt Q9UK41)
inactive: [1] 0.109 | [2] -0.02 | [3] 0.009 | [4] 0.046 | [5] -0.004 | [6] -0.005 | [7] 0.019 | [8] -0.092 | [9] 0.028 | [10] 0.019

VPS4B (UniProt O75351)
inactive: [1] -0.006 | [2] -0.002 | [3] 0.061 | [4] 0.024 | [5] 0.071 | [6] 0.005 | [7] -0.07 | [8] -0.077 | [9] 0.048 | [10] 0.016

2 entries picked at random from those above, as already listed:
WNK4 (UniProt Q96J92)
inactive: [1] 0.051 | [2] -0.014 | [3] 0.016 | [4] -0.134 | [5] -0.002 | [6] 0.028 | [7] -0.029 | [8] 0 | [9] -0.008 | [10] -0.022

WDR33 (UniProt Q9C0J8)
inactive: [1] 0.052 | [2] 0.033 | [3] 0.033 | [4] -0.04 | [5] 0.003 | [6] -0.064 | [7] -0.019 | [8] -0.006 | [9] -0.001 | [10] -0.012

Continued:

WDR82 (UniProt Q6UXN9)
inactive: [1] 0.003 | [2] -0.024 | [3] 0.011 | [4] -0.022 | [5] -0.002 | [6] -0.006 | [7] 0.003 | [8] 0.001 | [9] 0.005 | [10] -0.007

VPS41 (UniProt P49754)
inactive: [1] -0.019 | [2] 0.007 | [3] 0.015 | [4] 0.016 | [5] 0.003 | [6] 0.024 | [7] 0.014 | [8] 0.005 | [9] 0.047 | [10] 0.013

WIPF3 (UniProt A6NGB9)
inactive: [1] 0.009 | [2] -0.021 | [3] 0.015 | [4] -0.032 | [5] -0.025 | [6] -0.004 | [7] 0.032 | [8] -0.023 | [9] -0.026 | [10] -0.02

VPS53 isoform 4 (UniProt Q5VIR6)
inactive: [1] -0.015 | [2] -0.016 | [3] 0.02 | [4] -0.044 | [5] -0.012 | [6] 0.012 | [7] 0.003 | [8] 0.003 | [9] 0.036 | [10] -0.024

WDR6 (UniProt Q9NNW5)
inactive: [1] 0.008 | [2] 0.008 | [3] 0.018 | [4] -0.017 | [5] -0.032 | [6] -0.012 | [7] -0.019 | [8] 0.011 | [9] 0.022 | [10] 0.017

WDR59 (UniProt Q6PJI9)
inactive: [1] 0.074 | [2] -0.014 | [3] 0.034 | [4] -0.062 | [5] -0.012 | [6] -0.008 | [7] -0.006 | [8] 0.009 | [9] 0.056 | [10] 0.015

VPS11 (UniProt Q9H270)
inactive: [1] -0.002 | [2] 0.025 | [3] 0.033 | [4] -0.025 | [5] 0.001 | [6] 0.003 | [7] 0.031 | [8] 0.026 | [9] -0.03 | [10] -0.002

VKORC1L1, A0A3B3ISV4
inactive: [1] -0.061 | [2] 0.038 | [3] -0.001 | [4] -0.011 | [5] -0.019 | [6] -0.029 | [7] -0.005 | [8] 0.02 | [9] -0.032 | [10] 0.052

WASHC5 (UniProt Q12768)
inactive: [1] 0.016 | [2] -0.008 | [3] 0.017 | [4] -0.026 | [5] -0.014 | [6] 0 | [7] -0.013 | [8] 0.004 | [9] -0.022 | [10] 0.005

WASH2P (UniProt Q6VEQ5)
inactive: [1] 0.038 | [2] 0.022 | [3] 0 | [4] 0.013 | [5] -0.002 | [6] 0.013 | [7] -0.001 | [8] 0.018 | [9] -0.008 | [10] -0.019

WDR5 (UniProt P61964)
inactive: [1] 0.11 | [2] -0.04 | [3] 0.096 | [4] -0.016 | [5] 0.021 | [6] -0.011 | [7] 0.025 | [8] 0.028 | [9] -0.025 | [10] 0.028

VPS25 (UniProt Q9BRG1)
inactive: [1] -0.016 | [2] -0.006 | [3] 0.008 | [4] -0.028 | [5] 0.022 | [6] -0.022 | [7] -0.024 | [8] -0.014 | [9] -0.003 | [10] 0.004

WDR81 (UniProt Q562E7)
inactive: [1] 0.019 | [2] -0.004 | [3] 0.023 | [4] -0.067 | [5] -0.002 | [6] 0.046 | [7] -0.025 | [8] -0.044 | [9] 0.026 | [10] 0.018

WASH6P (UniProt Q9NQA3)
inactive: [1] -0.08

WDTC1 (UniProt Q8N5D0)
inactive: [1] 0.03 | [2] -0.013 | [3] 0.025 | [4] -0.007 | [5] 0.043 | [6] 0.077 | [7] 0.018 | [8] -0.024 | [9] 0.052 | [10] -0.012
